Assay results published in patent publication US9657043B2, “Amine compound and use thereof for medical purposes” (MITSUBISHI TANABE PHARMA CORPORATION, priority 2012, dated 2017).
Some results were stated once for a whole list of compounds, not compound by compound.

The compounds below were run on heart rate of rat (assay: Effect on heart rate of rat under anesthesia). Settings: anesthetized rat, intravenous over 30 seconds, until the dose became 0.03 mg/kg body weight; measured 1-15 min after administration.
Format: in vivo, male Sprague-Dawley (IGS) rats

Row | SMILES | decrease of heart rate as compared to the value before administration
1 | COc1ccc(Oc2ccc3c(=O)c4ccc(CCC(N)(CO)COP(=O)(O)O)cc4oc3c2)cc1 (stereo not drawn) [Example 276, mono{2-amino-2-hydroxymethyl-4-[6-(4-methoxyphenoxy)-9-oxo-9H-xanthen-3-yl]butyl}phosphate] | < 20%
2 | NC(CO)(CCc1ccc2sc3cc(Oc4ccc(Cl)cc4)ccc3c(=O)c2c1)COP(=O)(O)O (stereo not drawn) [Example 296, mono{2-amino-4-[6-(4-chlorophenoxy)-9-oxo-9H-thioxanthen-2-yl]-2-hydroxymethylbutyl}phosphate] | < 20%
3 | NC(CO)(CCc1ccc2sc3cc(Oc4cccc(C(F)(F)F)c4)ccc3c(=O)c2c1)COP(=O)(O)O (stereo not drawn) [Example 300, mono(2-amino-2-hydroxymethyl-4-{9-oxo-6-[3-(trifluoromethyl)phenoxy]-9H-thioxanthen-2-yl}butyl)phosphate] | < 20%
4 | NC(CO)(CCc1ccc2c(=O)c3cc(Oc4cccc(C(F)(F)F)c4)ccc3oc2c1)COP(=O)(O)O (stereo not drawn) [Example 218, mono(2-amino-2-hydroxymethyl-4-{9-oxo-7-[3-(trifluoromethyl)phenoxy]-9H-xanthen-3-yl}butyl)phosphate] | < 20%
5 | CCCCCCOc1ccc2c(=O)c3ccc(CCC(N)(CO)COP(=O)(O)O)cc3sc2c1 (stereo not drawn) [Example 312, mono[2-amino-4-(6-hexyloxy-9-oxo-9H-thioxanthen-3-yl)-2-(hydroxymethyl)butyl]phosphate] | < 20%
6 | NC(CO)(CCc1ccc2oc3cc(-c4cccc(C(F)(F)F)c4)ccc3c(=O)c2c1)COP(=O)(O)O (stereo not drawn) [Example 246, mono{2-amino-2-hydroxymethyl-4-[9-oxo-6-[3-(trifluoromethyl)phenyl]-9H-xanthen-2-yl]butyl}phosphate] | < 20%
